# Experimental data reported in the supplement of paper PMC11732987, “Enantioselective OTUD7B fragment discovery through chemoproteomics screening and high-throughput optimisation” (Communications Chemistry, 2025).
# Some of the results follow. The data scatter; read single values as rough.
# Key:
# [1] = compound: ClCC(=O)N[C@H]1CCCc2ccccc12; assay: log2 mean competition ratio of IA-DTB cysteine labelling (DMSO/compound) (log2 ratio); higher = stronger cysteine engagement by compound; details: treatment time: 4 h, cell line lysate: HEK293T
# Procedure: (§1)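 IA-DTB competitive cysteine chemoproteomics in HEK293T RIPA lysate. Lysates were treated with compound 29 or 30 at 50 or 200 µM for 4 h, then IA-DTB (500 µM, 1 h), trypsin-digested, NeutrAvidin-enriched and analysed by diaPASEF. Competition ratio = intensity DMSO / intensity compound (n=4 treated, n=64 DMSO); binding: mean log2 CR ≥ 1 and p ≤ 0.05 plus QC filters. Target is the cysteine site.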
# [2] = compound: ClCC(=O)N[C@@H]1CCCc2ccccc12; assay: as above; details: treatment time: 4 h, cell line lysate: HEK293T
# Procedure: as §1
Target,log2 mean competition ratio ([1]; 50 µM),log2 mean competition ratio ([1]; 200 µM),log2 mean competition ratio ([2]; 50 µM),log2 mean competition ratio ([2]; 200 µM)
NRDC C1027 (UniProt O43847),-0.471,-0.437,–,–
NR2F2 C121 (UniProt P24468),0.374,-0.299,–,–
NUP153 C585 (UniProt P49790),0.894,-0.212,–,–
NUP98 C1027 (UniProt P52948),-0.209,0.153,–,–
OLA1 C187 (UniProt Q9NTK5),-0.0273,0.135,-0.0776,0.119
NUP188 C161 (UniProt Q5SRE5),-0.408,-0.274,–,–
OBI1 C506 (UniProt Q5W0B1),0.275,0.169,0.239,0.18
NUP153 C1065 (UniProt P49790),0.636,-0.0223,–,–
OGDH C283 (UniProt Q02218),-0.264,0.249,–,–
NUMB C176 (UniProt P49757),0.189,-0.0959,–,–
NUP85 C230 (UniProt Q9BW27),0.0396,0.352,–,–
NUMA1 C1673 (UniProt Q14980),-0.143,0.173,–,–
NSD3 C1292 (UniProt Q9BZ95),-0.236,-0.109,–,–
OGFOD1 C435 (UniProt Q8N543),0.0949,-0.144,–,–
NSUN4 C258 (UniProt Q96CB9),-0.134,-0.109,–,–
ORC5 C409 (UniProt O43913),-0.194,0.191,–,–
OSGEPL1 C46 (UniProt Q9H4B0),0.388,-0.314,–,–
OSGEPL1 C216 (UniProt Q9H4B0),-0.0419,0.328,–,–
NPAT C1172 (UniProt Q14207),-0.296,-0.0373,–,–
NT5C3B C114 (UniProt Q969T7),-0.0218,-0.164,–,–
OBI1 C338 (UniProt Q5W0B1),-0.0198,0.261,–,–
OSBPL10 C33 (UniProt Q9BXB5),0.226,0.183,–,–
OCRL C428 (UniProt Q01968),-0.407,-0.211,–,–
OIP5 C21 (UniProt O43482),-0.211,0.197,–,–
NUTF2 C114 (UniProt P61970),-0.132,-0.135,–,–
OPA1 C786 (UniProt O60313),-0.0978,-0.0949,–,–
OSBPL9 C147,-0.0318,0.0426,–,–

# Whole records as entered above. Order of values: log2 mean competition ratio ([1]; 50 µM) | log2 mean competition ratio ([1]; 200 µM) | log2 mean competition ratio ([2]; 50 µM) | log2 mean competition ratio ([2]; 200 µM)
# OBI1 C338 (UniProt Q5W0B1) reads -0.0198 | 0.261 | – | –
# OBI1 C506 (UniProt Q5W0B1) reads 0.275 | 0.169 | 0.239 | 0.18
